Paper PMC8626462
Results are given in words; binding and its absence hold for the method and conditions named. Binding seen in cells or lysates may run through a third protein. Here binding means that the protein was enriched with, or labelled near, the bait; the list need not be complete.

Amino acid sequences for entries named in this document (tags omitted).
UniProt P51532: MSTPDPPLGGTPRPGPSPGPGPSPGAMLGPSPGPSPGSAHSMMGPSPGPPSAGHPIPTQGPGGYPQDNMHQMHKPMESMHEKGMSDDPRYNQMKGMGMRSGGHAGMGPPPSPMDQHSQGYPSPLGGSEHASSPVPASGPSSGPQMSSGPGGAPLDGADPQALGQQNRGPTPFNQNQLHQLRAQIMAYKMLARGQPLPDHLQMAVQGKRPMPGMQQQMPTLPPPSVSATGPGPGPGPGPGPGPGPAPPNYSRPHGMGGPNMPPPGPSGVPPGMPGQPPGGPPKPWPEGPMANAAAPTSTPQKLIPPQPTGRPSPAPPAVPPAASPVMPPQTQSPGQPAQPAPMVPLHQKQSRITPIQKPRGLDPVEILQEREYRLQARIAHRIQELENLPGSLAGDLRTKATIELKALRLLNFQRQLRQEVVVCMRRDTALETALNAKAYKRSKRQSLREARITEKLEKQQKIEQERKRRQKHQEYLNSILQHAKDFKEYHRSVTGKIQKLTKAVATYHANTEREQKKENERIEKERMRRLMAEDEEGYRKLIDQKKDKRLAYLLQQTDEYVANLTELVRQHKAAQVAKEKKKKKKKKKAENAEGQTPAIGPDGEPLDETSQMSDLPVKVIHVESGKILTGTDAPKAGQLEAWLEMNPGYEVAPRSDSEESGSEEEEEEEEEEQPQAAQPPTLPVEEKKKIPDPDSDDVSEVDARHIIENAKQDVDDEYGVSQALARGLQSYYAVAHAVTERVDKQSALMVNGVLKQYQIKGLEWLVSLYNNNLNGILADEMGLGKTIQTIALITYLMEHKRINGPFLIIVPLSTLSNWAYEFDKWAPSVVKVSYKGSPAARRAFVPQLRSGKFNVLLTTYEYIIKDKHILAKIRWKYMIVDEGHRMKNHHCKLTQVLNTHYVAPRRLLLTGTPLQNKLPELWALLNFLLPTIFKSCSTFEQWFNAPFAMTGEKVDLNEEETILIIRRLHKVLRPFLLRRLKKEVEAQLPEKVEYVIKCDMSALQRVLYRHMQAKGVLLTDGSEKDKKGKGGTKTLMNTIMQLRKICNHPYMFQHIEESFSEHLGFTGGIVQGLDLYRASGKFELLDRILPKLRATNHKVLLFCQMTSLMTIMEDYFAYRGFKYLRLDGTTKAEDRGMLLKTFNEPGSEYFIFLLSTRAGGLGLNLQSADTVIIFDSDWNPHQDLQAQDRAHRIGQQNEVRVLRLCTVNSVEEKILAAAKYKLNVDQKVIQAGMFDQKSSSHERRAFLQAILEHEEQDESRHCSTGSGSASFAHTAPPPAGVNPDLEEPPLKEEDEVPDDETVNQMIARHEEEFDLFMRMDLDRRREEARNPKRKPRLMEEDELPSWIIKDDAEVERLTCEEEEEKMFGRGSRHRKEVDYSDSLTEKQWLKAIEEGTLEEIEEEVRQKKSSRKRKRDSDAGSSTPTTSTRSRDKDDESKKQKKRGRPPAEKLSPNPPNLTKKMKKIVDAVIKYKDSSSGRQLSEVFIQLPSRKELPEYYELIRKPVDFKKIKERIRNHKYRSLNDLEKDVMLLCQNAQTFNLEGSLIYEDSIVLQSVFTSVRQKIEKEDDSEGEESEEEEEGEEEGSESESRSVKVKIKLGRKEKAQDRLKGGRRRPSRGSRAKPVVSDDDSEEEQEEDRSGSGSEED
UniProt Q86U86: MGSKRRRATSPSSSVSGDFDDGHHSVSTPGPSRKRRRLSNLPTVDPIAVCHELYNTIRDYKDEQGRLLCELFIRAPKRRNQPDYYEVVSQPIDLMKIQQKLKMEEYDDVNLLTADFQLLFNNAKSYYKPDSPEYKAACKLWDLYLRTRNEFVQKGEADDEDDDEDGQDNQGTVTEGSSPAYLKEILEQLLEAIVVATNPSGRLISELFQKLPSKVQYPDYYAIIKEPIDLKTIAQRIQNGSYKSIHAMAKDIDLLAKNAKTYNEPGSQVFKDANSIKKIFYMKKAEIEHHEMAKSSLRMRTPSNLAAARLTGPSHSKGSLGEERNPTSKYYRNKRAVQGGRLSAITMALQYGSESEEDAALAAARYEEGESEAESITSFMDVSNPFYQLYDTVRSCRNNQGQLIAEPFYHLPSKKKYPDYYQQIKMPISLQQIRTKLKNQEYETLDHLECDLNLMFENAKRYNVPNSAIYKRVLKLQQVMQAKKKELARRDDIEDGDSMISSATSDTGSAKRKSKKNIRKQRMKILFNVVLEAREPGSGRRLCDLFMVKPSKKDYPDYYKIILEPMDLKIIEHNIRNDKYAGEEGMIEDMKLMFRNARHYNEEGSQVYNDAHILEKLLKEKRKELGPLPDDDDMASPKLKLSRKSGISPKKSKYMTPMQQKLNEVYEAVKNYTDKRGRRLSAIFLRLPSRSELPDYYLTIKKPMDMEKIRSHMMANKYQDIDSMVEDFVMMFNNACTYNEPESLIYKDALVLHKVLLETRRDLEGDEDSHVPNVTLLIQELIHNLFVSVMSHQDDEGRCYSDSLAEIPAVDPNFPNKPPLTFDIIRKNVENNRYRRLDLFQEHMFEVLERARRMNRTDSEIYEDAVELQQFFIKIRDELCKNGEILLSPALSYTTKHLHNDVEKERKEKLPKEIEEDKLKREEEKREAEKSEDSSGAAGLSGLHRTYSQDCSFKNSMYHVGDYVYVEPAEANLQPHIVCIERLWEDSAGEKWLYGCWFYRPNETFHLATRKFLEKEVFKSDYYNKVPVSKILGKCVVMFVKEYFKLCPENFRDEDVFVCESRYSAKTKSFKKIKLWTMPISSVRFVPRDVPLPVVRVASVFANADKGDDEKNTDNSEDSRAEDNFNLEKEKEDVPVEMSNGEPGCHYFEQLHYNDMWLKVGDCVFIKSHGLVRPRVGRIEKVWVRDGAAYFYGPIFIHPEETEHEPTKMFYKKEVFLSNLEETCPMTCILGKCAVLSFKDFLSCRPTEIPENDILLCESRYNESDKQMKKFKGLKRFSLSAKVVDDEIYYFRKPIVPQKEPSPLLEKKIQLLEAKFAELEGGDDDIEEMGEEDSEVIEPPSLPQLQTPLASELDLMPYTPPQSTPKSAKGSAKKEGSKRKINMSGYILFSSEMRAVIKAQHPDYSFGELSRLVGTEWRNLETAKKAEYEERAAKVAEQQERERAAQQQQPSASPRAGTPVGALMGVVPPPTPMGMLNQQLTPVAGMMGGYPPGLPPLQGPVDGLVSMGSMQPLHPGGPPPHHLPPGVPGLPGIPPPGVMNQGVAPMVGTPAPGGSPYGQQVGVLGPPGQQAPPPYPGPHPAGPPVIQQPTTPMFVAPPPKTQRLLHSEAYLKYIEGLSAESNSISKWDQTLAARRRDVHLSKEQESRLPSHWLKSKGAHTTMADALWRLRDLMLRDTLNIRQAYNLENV

Columns and labels:
[1] = target: BRG1 (encoded by SMARCA4) (human (endogenous in HEK293T, RH4, RH30)) (UniProt P51532); assay: affinity purification with mass spectrometry; SEC-IP-LCMS: 1-2 megadalton SEC fractions (16-18) of ammonium sulfate precipitated nuclear extracts of RH30 and RH4 cells, diluted 1:1 in SEC-IP buffer; 3 µg BRG1, PBRM1 (results also: BRM) or non-specific IgG antibody, ~16 h 4 °C; Protein A Dynabeads 4 h; on-bead trypsin digestion, LCMS
[2] = target: PBRM1 (human (endogenous in HEK293T, RH4, RH30)) (UniProt Q86U86); assay: as above

B1: PHF10 (protein, UniProt Q8WUB8 1-498)
chain: MAAAAGPGAALSPRPCDSDPATPGAQSPKDDNEDNSNDGTQPSKRRRMGSGDSSRSCETSSQDLGFSYYPAENLIEYKWPPDETGEYYMLQEQVSEYLGVTSFKRKYPDLERRDLSHKEKLYLRELNVITETQCTLGLTALRSDEVIDLMIKEYPAKHAEYSVILQEKERQRITDHYKEYSQMQQQNTQKVEASKVPEYIKKAAKKAAEFNSNLNRERMEERRAYFDLQTHVIQVPQGKYKVLPTERTKVSSYPVALIPGQFQEYYKRYSPDELRYLPLNTALYEPPLDPELPALDSDGDSDDGEDGRGDEKRKNKGTSDSSSGNVSEGESPPDSQEDSFQGRQKSKDKAATPRKDGPKRSVLSKSVPGYKPKVIPNAICGICLKGKESNKKGKAESLIHCSQCENSGHPSCLDMTMELVSMIKTYPWQCMECKTCIICGQPHHEEEMMFCDMCDRGYHTFCVGLGAIPSGRWICDCCQRAPPTPRKVGRRGKNSKEG
binding [1]: binds | binding [2]: binds
